Results: US7022669B1 (Aventis Pharma S.A., priority 1999, dated 2006)

Assay: general procedure: peptide synthesis; pentafluorophenyl ester (pentafluorophenol, N,N'-dicyclohexylcarbodiimide)
Details: trifluoroacetate

Substance	step yield (lipidation step)	step yield (late stage modification step)
1-[(4R,5R)-4,5-dihydroxy-N-2-[[4′-(octyloxy)[1,1′-biphenyl]-4-yl]-carbonyl]-L-ornithine]-4-[4-(4-hydroxy-phenyl)-L-threonine]-5-L-serine echinocandin B	73%	
1-[N2-[[4′-(octyloxy)-[1,1′-biphenyl]-4-yl] carbonyl]-4-oxo-L-ornithine]-4-[4-(4-hydroxyphenyl)-L-threonine]-5-L-serine-echinocandine B		55%
